Experimental data reported in US20040136959A1 (published 2004).
Results are given in words; binding and its absence hold for the method and conditions named. Some entries that bind do so weakly or less than the wild type.

Amino acid sequences for entries named in this document (tags omitted). Residues count along the entry.
UniProt P35225, residues 35-146: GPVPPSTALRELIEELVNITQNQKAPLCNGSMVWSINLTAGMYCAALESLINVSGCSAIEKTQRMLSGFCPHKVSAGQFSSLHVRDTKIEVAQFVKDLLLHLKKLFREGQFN

Key:
[1] = target: T1, human IL-13 receptor α2 chain (IL-13Rα2) (human, UniProt Q14627 27-380); assay: 125I-IL-13 radioreceptor binding on transfected cells
T1 construct: also called IL-13Rα2 chain; IL-13Rα chain
T1 sequence: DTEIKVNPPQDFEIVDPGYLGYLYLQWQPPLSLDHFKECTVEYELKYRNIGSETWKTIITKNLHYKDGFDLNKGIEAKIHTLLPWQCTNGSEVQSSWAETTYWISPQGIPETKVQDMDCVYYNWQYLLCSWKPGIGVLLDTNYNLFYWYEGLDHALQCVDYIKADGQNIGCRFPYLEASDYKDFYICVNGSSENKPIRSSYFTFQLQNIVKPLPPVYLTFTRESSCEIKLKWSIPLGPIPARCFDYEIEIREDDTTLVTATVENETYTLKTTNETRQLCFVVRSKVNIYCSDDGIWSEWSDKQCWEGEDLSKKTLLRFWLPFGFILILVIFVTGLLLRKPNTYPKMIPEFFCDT

[2] = target: T1, human IL-13 receptor α2 chain (IL-13Rα2); assay: 125I-IL-13 radioreceptor binding on A253α2, YCUT891α2 and KCCT871α2 stable transfectants
[3] = target: T1, human IL-13 receptor α2 chain (IL-13Rα2); assay: 125I-IL-13 radioreceptor binding on DU145α2 cells; binding 'greatly increased' after IL-13Rα2 transfection
[4] = target: T1, human IL-13 receptor α2 chain (IL-13Rα2); assay: 125I-IL-13 (200 pM) radioreceptor binding on T98G, A253, Caki-1 and PANC-1 cells transiently transfected with IL-13Rα2, 4 C, 2 h

Measured: binding

Recombinant human IL-13 (from UniProt P35225 35-146) (ligand)
binds: all assays above
